Values quoted from earlier work, collected in patent publication US20160201132A1, “GENE EXPRESSION BIOMARKERS OF LAQUINIMOD RESPONSIVENESS” (Teva Pharmaceutical Industries Ltd., priority 2013, published 2016).

Conditions: in vivo; cited from earlier work

## CCN(C(=O)c1c(O)c2c(Cl)cccc2n(C)c1=O)c1ccccc1 [LAQ, 5-chloro-N-ethyl-4-hydroxy-1-methyl-2-oxo-N-phenyl-1,2-dihydroquinoline-3-carboxamide]
  oral bioavailability: high
